# PubChem BioAssay AID1224826 | NIAID | 2016
# Aim: 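Genes that change LPS-induced Tnf promoter activity in mouse macrophages when knocked down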 (primary screen)
# Cells: RAW264.7 G9 macrophages from mouse bearing reporters for p65 (GFP) and the Tnf promoter (mCherry)
# Knock-down reagent: siRNA pool against mouse genes, 100 nM
# Duration: 16 h of LPS stimulation, after 2 days of siRNA transfection
# Conditions: bacterial lipopolysaccharide (Salmonella minnesota R595), 10 ng/ml
# Measured: 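Nuclear mCherry signal of the Tnf promoter reporter measured by imaging after background removal, scaled to each plate median and turned into robust z-scores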
# Reading the numbers: Tnf reporter robust z-score: higher = stronger Tnf promoter reporter signal after LPS; Tnf reporter intensity: higher = stronger Tnf promoter reporter signal
# Active means: 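Called active when robust z-score is at most -1.3, matching the median of the Tlr4 knock-down control, or over 3; control wells and wells with under 50 cells never active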
# Calls: active = Tnf reporter clearly lowered or raised; inactive = no clear change in Tnf reporter
# The deposit covers about 17,000 reagents; below is a random part of them. About 1,110 of them (6.6%) were called active. 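Active means lowered or raised reporter signal; replicate intensities are raw and not normalised per plate.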 The numbers tell different reagents against one gene apart. Further read-outs or replicates are left out here.
Gene,reagent,Tnf reporter robust z-score,fewer than 50 cells in well,"Tnf reporter intensity, replicate 1",outcome
Rabac1,1,-0.05,enough cells in well,305,inactive
Drg2,1,0.11,enough cells in well,256,inactive
Hmgb4,1,,fewer than 50 cells per well; well left out of calls,757,inactive
Ncam2,1,-0.25,enough cells in well,223,inactive
Parp8,1,0.68,enough cells in well,238,inactive
St6gal1,1,-0.3,enough cells in well,232,inactive
Pdpn,1,-0.89,enough cells in well,197,inactive
Pdcl,1,-0.35,enough cells in well,269,inactive
1810030O07Rik,1,-0.24,enough cells in well,145,inactive
Spmip4,1,,fewer than 50 cells per well; well left out of calls,86.5,inactive
Dlx6,1,-0.68,enough cells in well,185,inactive
Jrkl,1,0.6,enough cells in well,159,inactive
Dffb,1,-0.29,enough cells in well,184,inactive
Nudt16l2,1,,fewer than 50 cells per well; well left out of calls,208,inactive
Nop58,1,0.67,enough cells in well,259,inactive
Cybb,1,1.34,enough cells in well,296,inactive
Mill2,1,-0.14,enough cells in well,230,inactive
Trib1,1,,fewer than 50 cells per well; well left out of calls,144,inactive
Fmo4,1,0.21,enough cells in well,300,inactive
Or6c212,1,-1.43,enough cells in well,54.8,active
Rtca,1,-0.97,enough cells in well,60.6,inactive
Zfp37,1,-0.09,enough cells in well,222,inactive
Oca2,1,-0.09,enough cells in well,237,inactive
Trem4,1,0.69,enough cells in well,136,inactive
Slc50a1,1,,fewer than 50 cells per well; well left out of calls,72.2,inactive
Rab6a,1,-0.17,enough cells in well,379,inactive
Tpd52,1,-0.38,enough cells in well,212,inactive
Trim28,1,-1.57,enough cells in well,131,active
Bhlha15,1,0.14,enough cells in well,193,inactive
Dnmt1,1,-0.08,enough cells in well,247,inactive
Abcc8,1,-1.29,enough cells in well,119,inactive
Abcc8,2,1.62,enough cells in well,269,inactive
Actrt2,1,0.1,enough cells in well,187,inactive
Magea3,1,1.59,enough cells in well,290,inactive
Mast3,1,-1.14,enough cells in well,127,inactive
Slc6a3,1,-0.06,enough cells in well,269,inactive
Fpr-rs6,1,0.42,enough cells in well,256,inactive
Ftmt,1,,fewer than 50 cells per well; well left out of calls,244,inactive
Usp42,1,-0.22,enough cells in well,160,inactive
Rfwd3,1,0.16,enough cells in well,233,inactive

Active calls, of those listed so far:
Gene,reagent,Tnf reporter robust z-score,fewer than 50 cells in well,"Tnf reporter intensity, replicate 1",outcome
Or6c212,1,-1.43,enough cells in well,54.8,active
Trim28,1,-1.57,enough cells in well,131,active
